The supplement of paper PMC5249140, “Delineating Substrate Diversity of Disparate Short-Chain Dehydrogenase Reductase from Debaryomyces hansenii” (PLoS ONE, 2017)
Single values are uncertain, as repeats are few or missing.

Each compound was assayed on DHK short-chain dehydrogenase reductase (Debaryomyces hansenii, Q6BTD7) (assay: apparent turnover number kcat for ketone reduction (NADPH consumption, 100 uM substrate) (s-1); higher = faster reduction of the ketone by the enzyme). Details: substrate concentration 100 µM; NADPH 100 µM; pH 7.4; 25 °C.
Experimental: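 Purified N-His6 DHK (unannotated SDR, Debaryomyces hansenii) was screened against a prochiral ketone library: 100 uM substrate, 100 uM NADPH, 1% BSA, 4% DMSO in 100 mM sodium phosphate / 100 mM NaCl pH 7.4 at 25 C, ~27 nM enzyme. Rate was followed by NADPH depletion at 340 nm and reported as apparent kcat (s-1) at a single substrate concentration; no replicates stated.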

Row | Compound | apparent turnover number kcat
1 | Cc1ccc(C2CC(=O)NC3=C2C(=O)CC(c2ccccc2)C3)cc1[N+](=O)[O-] (centres undefined) | 5.53
2 | Cc1ccc(Nc2cc(N(C)C)c3noc4c3c2C(=O)c2ccccc2-4)cc1 | 4.89
3 | O=C(CN1CCN(c2ccc(F)cc2)CC1)c1ccc(O)cc1O | 5.99
4 | O=C(CN1C(=O)c2ccccc2C1=O)OCC(=O)c1ccc(Cl)cc1Cl | 7.04
5 | CC(=O)c1ccc(NS(=O)(=O)c2cccc(C(C)=O)c2)cc1 | 5.01
6 | CC(=O)c1cccc(N(CC(=O)N2CCCC2)S(C)(=O)=O)c1 | 6.11
7 | Cc1c(NC(=O)CN2C(=O)C(=O)c3ccccc32)c(=O)n(-c2ccccc2)n1C | 4.04
8 | O=C(NNC(=O)c1ccccc1)C(=O)C1C(=O)Nc2ccccc21 (centres undefined) | 6.42
9 | Cc1ccc(C(=O)COC(=O)CCN2C(=O)c3c(Cl)c(Cl)c(Cl)c(Cl)c3C2=O)cc1 | 3.65
10 | O=C(CN1C(=O)c2ccccc2C1=O)OCC(=O)c1ccccc1Cl | 4.46
11 | COCCN1C(=O)c2ccc(C(=O)c3ccc([N+](=O)[O-])cc3)cc2C1=O | 7.01
12 | CN1C(=O)C(O)=C(C(=O)c2ccc(Br)cc2)C1c1cccc([N+](=O)[O-])c1 (centres undefined) | 4.03
13 | CC(C)c1noc2ncc(C(=O)c3ccccc3O)cc12 | 6.79
14 | CC(=O)N(C1=C(Cl)C(=O)c2ccccc2C1=O)c1cccc(Br)c1 | 6.28
15 | COc1ccccc1NC=C1C(=O)CC(c2ccccc2)CC1=O (centres undefined) | 4.2
16 | CC(=O)c1cccc(OC(C)C(=O)Nc2ccc3c(c2)OCCO3)c1 (centres undefined) | 5.65
17 | Cc1cnc(C(=O)OCC(=O)c2ccc3c(c2)CCCC3)cn1 | 4.56
18 | O=C(CON1C(=O)c2ccccc2C1=O)c1ccc(O)cc1O | 8.35
19 | O=C(Cn1cc(C(=O)c2ccccc2)c2ccccc21)NCc1ccc2c(c1)OCO2 | 3.43
20 | CC(=O)c1cccc(N(CC(=O)N2CCC(C(N)=O)CC2)S(C)(=O)=O)c1 | 4.73

Some of these compounds in order of length of the SMILES, low to high.
Row | Compound | apparent turnover number kcat
18 | O=C(CON1C(=O)c2ccccc2C1=O)c1ccc(O)cc1O | 8.35
17 | Cc1cnc(C(=O)OCC(=O)c2ccc3c(c2)CCCC3)cn1 | 4.56
14 | CC(=O)N(C1=C(Cl)C(=O)c2ccccc2C1=O)c1cccc(Br)c1 | 6.28
20 | CC(=O)c1cccc(N(CC(=O)N2CCC(C(N)=O)CC2)S(C)(=O)=O)c1 | 4.73

The results go on:

Row | Compound | apparent turnover number kcat
21 | O=C(CN1C(=O)c2ccc([N+](=O)[O-])cc2C1=O)c1ccc(Cl)s1 | 5.18
22 | O=C(CSC(=S)N1CCOCC1)c1ccccc1 | 3.13
23 | O=C(CN1C(=O)c2cc(Br)c([N+](=O)[O-])cc2C1=O)OCC(=O)c1ccccc1 | 3.14
24 | Cc1ccnc(NC(=O)COC(=O)CN2C(=O)C(=O)c3ccccc32)c1 | 5.54
25 | O=C(COC(=O)CN1C(=O)C(=O)c2ccccc21)NCc1ccco1 | 3.78
26 | O=C1COc2ccc(C(=O)COC(=O)c3cccs3)cc2N1 | 4.8
27 | O=C(COC(=O)c1n[nH]c2ccccc12)c1c[nH]c2ccccc12 | 4.48
28 | O=C(CSc1nnc2ccccn12)c1cc2ccccc2o1 | 6.11
29 | CCN1C(=O)C(=O)N(CC(=O)c2cc(C)n(-c3ccccc3)c2C)C1=O | 3.73
30 | O=C1c2ccccc2C(=O)C1c1cc(O)nc2c1ccc1ccccc12 | 3.66
31 | Nc1no[n+]([O-])c1C(=O)CSc1nnnn1-c1ccccc1 | 0.553
32 | N#Cc1cc(C(=O)c2ccccc2O)cn(-c2nccs2)c1=O | 7.51
33 | Cn1c(N)c(C(=O)c2ccc(Oc3ccccc3)cc2)c(=O)n(C)c1=O | 4.48
34 | O=C(CNC(=O)c1ccccc1)OCC(=O)c1ccc2ccccc2c1 | 7.01
35 | Cc1ccc(O)c(C(=O)c2cnc3cc4c(cc3c2)OCO4)c1 | 0.401
36 | O=C(C=Cc1ccccc1)OCC(=O)c1ccc([N+](=O)[O-])cc1 | 4.69
37 | O=C(NCc1nnnn1-c1ccc(F)cc1)C(=O)c1c[nH]c2ccccc12 | 4.37
38 | O=C(COC(=O)c1ccc2ccccc2n1)c1ccc([N+](=O)[O-])cc1 | 3.89
39 | CC(=O)C1=C(O)C(=O)N(CC(=O)[O-])C1c1cccc([N+](=O)[O-])c1 (centres undefined) | 5.24
40 | O=C(CC(C(=O)O)n1cnc([N+](=O)[O-])n1)c1ccc(Br)cc1 (centres undefined) | 4.39

Row | Compound | apparent turnover number kcat
41 | O=C1NC(=O)C(=NNc2ccc(C(=O)c3ccccc3)cc2)C(=O)N1 | 4.66
42 | CC(=O)c1ccc(NC(=O)CSc2nc3[nH]ncc3c(=O)[nH]2)cc1 | 4.38
43 | O=C(CNC(=O)c1ccccc1F)OCC(=O)c1c[nH]c2ccccc12 | 4.48
44 | CCOc1cc(C2C3=C(CCCC3=O)Nc3[nH]c(=O)[nH]c(=O)c32)ccc1O (centres undefined) | 5.96
45 | O=C(CN1C(=O)c2ccccc2C1=O)OCC(=O)c1ccc2c(c1)OCO2 | 4.26
46 | N#Cc1cc(C#N)c(SCC(=O)c2ccc(F)cc2)nc1N | 3.8
47 | CC(=O)c1ccc(Sc2ccccn2)c([N+](=O)[O-])c1 | 4.51
48 | CCCOc1ccc(C2CC(=O)NC3=C2C(=O)CCC3)cc1 (centres undefined) | 4.69
49 | CC(=O)c1cccc(S(=O)(=O)Nc2ccccc2CO)c1 | 8.14
50 | CCOc1ccc(NC(=O)CN2C(=O)C(=O)c3ccccc32)cc1 | 5.02
51 | Cc1[nH]c2ccccc2c1C(=O)C(=O)Nc1c(C(N)=O)oc2ccccc12 | 3.42
52 | CC(=O)c1ccc(O)c(CSc2nnc(-c3ccc(Br)cc3)o2)c1 | 7.9
53 | CC(=O)c1ccc(NS(=O)(=O)c2cc([N+](=O)[O-])c(C)cc2C)cc1 | 5.36
54 | COc1ccc(O)c(C(=O)c2cnc3cc4c(cc3c2)OCCO4)c1 | 7.05
55 | Cc1occc1-c1nnc(SCC(=O)c2cc3ccccc3oc2=O)o1 | 8.72
56 | O=C(CSc1nc(-c2ccc([N+](=O)[O-])cc2)c[nH]1)c1ccc(O)c(O)c1 | 5.56
57 | COC(=O)c1cc(S(=O)(=O)Nc2ccc(C(C)=O)cc2)ccc1Cl | 6.43
58 | O=C([O-])CCN1C(=O)c2ccc(C(=O)c3ccc(C(=O)[O-])cc3)cc2C1=O | 5.23
59 | CCOC(=O)C1=C(C)NC2=C(C(=O)CC(C)(C)C2)C1c1cc([N+](=O)[O-])c(C)s1 (centres undefined) | 4.3
